Experiments:
H69 tumour-bearing mice = assay: Dosimetry: absorbed radiation dose in organs and tumour, H69 tumour-bearing mice; type: in vivo, BALB/c (nu/nu) nude mice; details: for Tumour dose (Gy): therapy, three injections, estimated from tumour size at T = 0 and injected activity, ± SD
[1] = tested on: CA20948 tumour-bearing mice; assay: Dosimetry: absorbed radiation dose in organs and tumour, CA20948 tumour-bearing mice; type: in vivo, BALB/c (nu/nu) nude mice; details: for Tumour dose (Gy): therapy, three injections, estimated from tumour size at T = 0 and injected activity, ± SD
[2] = H69 tumour-bearing mice, from biodistribution data
[3] = CA20948 tumour-bearing mice, from biodistribution data

C[C@@H](O)[C@H](NC(=O)[C@@H]1CSSC[C@H](NC(=O)[C@@H](Cc2ccccc2)NC(=O)CN2CCN(CC(=O)O)CCN(CC(=O)O)CCN(CC(=O)O)CC2)C(=O)N[C@@H](Cc2ccc(O)cc2)C(=O)N[C@H](Cc2c[nH]c3ccccc23)C(=O)N[C@@H](CCCCN)C(=O)N[C@@H]([C@@H](C)O)C(=O)N1)C(=O)O [^213Bi-DOTATATE, ^213Bi-[DOTA^0, Tyr^3]-octreotate, metal not drawn]
Tumour dose (Gy) (H69 tumour-bearing mice; H69 large tumours): 2.0 ± 0.6 Gy | Tumour dose (Gy) (H69 tumour-bearing mice; H69 small tumours): 5 ± 1 Gy | Absorbed dose, bone marrow (H69 tumour-bearing mice; [2]): < 0.02 Gy/MBq | Absorbed radiation dose, liver (H69 tumour-bearing mice; [2]): 0.06 Gy/MBq | Absorbed radiation dose, pancreas (H69 tumour-bearing mice; [2]): 0.15 Gy/MBq | Absorbed radiation dose, spleen (H69 tumour-bearing mice; [2]): 0.06 Gy/MBq | Tumour-absorbed radiation dose (H69 tumour-bearing mice; H69 tumour-bearing mice, per MBq injected, calculated for 100 mg tumour, from biodistribution at 10, 30, 60 and 120 min p.i.): 0.45 Gy/MBq | Renal-absorbed dose (H69 tumour-bearing mice; H69 tumour-bearing mice, per MBq injected, from biodistribution data): 2 Gy/MBq | Tumour dose (Gy) ([1]; CA20948 large tumours): 10 ± 5 Gy | Tumour dose (Gy) ([1]; CA20948 small tumours): 17 ± 1 Gy | Tumour-absorbed radiation dose ([1]; CA20948 tumour-bearing mice, from biodistribution at 10, 30, 60 and 120 min p.i.): 0.78 Gy/MBq | Absorbed dose, bone marrow [1, 3]: < 0.02 Gy/MBq | Absorbed radiation dose, kidneys [1, 3]: 1.6 Gy/MBq | Absorbed radiation dose, liver [1, 3]: 0.06 Gy/MBq | Absorbed radiation dose, pancreas [1, 3]: 0.13 Gy/MBq | Absorbed radiation dose, spleen [1, 3]: 0.05 Gy/MBq

Reference: article PMC4720616, “Influence of tumour size on the efficacy of targeted alpha therapy with ^213Bi-[DOTA^0,Tyr^3]-octreotate” (EJNMMI Research, 2016)
